PubChem BioAssay AID1259308 – NCATS – 2017
Here is one part, drawn at random, of about 59,000 reagents. Over the whole deposit, about 1,510 (2.6%) were called active. 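Calls use total luciferase alone and ignore viability, so some active siRNAs may act by altering cell number.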 The numbers tell different reagents against one gene apart. Further read-outs or replicates are left out here.

- Aim: 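Genes whose loss raises luciferase production in HEK293 cells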 (primary screen)
- Cells: human HEK293 embryonic kidney cells stably expressing firefly luciferase (HEK-CMV-Luc2-Hygro)
- Reagent: single siRNA against human genes, 0.8 pmol siRNA per well
- Duration: 72 h
- Measured: 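Reporter luminescence and viable-cell signal on separate replicate plates, given as percent of non-targeting control and median/MAD z-scores, plus per-cell luciferase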
- Scale: total luciferase, z-score: higher = more reporter protein produced
- Active means: 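An siRNA counts as active if its total luciferase robust z-score exceeds 3; genes with two or more such siRNAs out of three were retested with fresh siRNAs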
- Calls: active = raised luciferase; inactive = no rise

How did the screen score CNBP #1?
total luciferase, z-score: 0.14; activity call: inactive

How did the screen score CNBP #2?
total luciferase, z-score: -0.753; activity call: inactive

With CNBP #3, what was measured?
total luciferase, z-score: -0.417; activity call: inactive

What did the screen give for CHST7 #1?
total luciferase, z-score: -1.14; activity call: inactive

What did the screen give for CHST7 #2?
total luciferase, z-score: -0.252; activity call: inactive

With CHST7 #3, what was measured?
total luciferase, z-score: -0.379; activity call: inactive

For ZNF630 #1, what does the deposit list?
total luciferase, z-score: 0.378; activity call: inactive

With ZNF630 #2, how do the results read?
total luciferase, z-score: 2.12; activity call: inactive

How did the screen score ZNF630 #3?
total luciferase, z-score: 0.339; activity call: inactive

Which result is listed for ZFP82 #1?
total luciferase, z-score: 0.00804; activity call: inactive

Which result is listed for ZFP82 #2?
total luciferase, z-score: 0.731; activity call: inactive

With ZFP82 #3, how do the results read?
total luciferase, z-score: 1.58; activity call: inactive

For LARP1 #1, what does the deposit list?
total luciferase, z-score: -0.2; activity call: inactive

What is on record for LARP1 #2?
total luciferase, z-score: 0.101; activity call: inactive

What did the screen give for LARP1 #3?
total luciferase, z-score: -2.36; activity call: inactive

For TRADD #1, what does the deposit list?
total luciferase, z-score: -1.36; activity call: inactive

How did the screen score TRADD #2?
total luciferase, z-score: -0.605; activity call: inactive

With TRADD #3, how do the results read?
total luciferase, z-score: -0.667; activity call: inactive

With MSL2 #1, what does the deposit list?
total luciferase, z-score: 1.75; activity call: inactive

How did the screen score MSL2 #2?
total luciferase, z-score: 0.288; activity call: inactive

With MSL2 #3, how do the results read?
total luciferase, z-score: 0.0463; activity call: inactive

With C6orf136 #1, what was measured?
total luciferase, z-score: 0.0795; activity call: inactive

With C6orf136 #2, what was measured?
total luciferase, z-score: -0.203; activity call: inactive

For C6orf136 #3, what was measured?
total luciferase, z-score: -1.21; activity call: inactive

For BRIX1 #1, what does the deposit list?
total luciferase, z-score: -0.988; activity call: inactive

For BRIX1 #2, what does the deposit list?
total luciferase, z-score: -2.06; activity call: inactive

What is on record for BRIX1 #3?
total luciferase, z-score: -1.66; activity call: inactive

With RABEP2 #1, how do the results read?
total luciferase, z-score: 0.158; activity call: inactive

What is on record for RABEP2 #2?
total luciferase, z-score: 0.613; activity call: inactive

For RABEP2 #3, what does the deposit list?
total luciferase, z-score: -0.834; activity call: inactive

How did the screen score LRRC71 #1?
total luciferase, z-score: 1.34; activity call: inactive

With LRRC71 #2, what does the deposit list?
total luciferase, z-score: -0.31; activity call: inactive

Which result is listed for LRRC71 #3?
total luciferase, z-score: -0.588; activity call: inactive

With ZNF703 #1, how do the results read?
total luciferase, z-score: 0.709; activity call: inactive

For ZNF703 #2, what does the deposit list?
total luciferase, z-score: 0.174; activity call: inactive

Which result is listed for ZNF703 #3?
total luciferase, z-score: 1.65; activity call: inactive

With NPM2 #1, how do the results read?
total luciferase, z-score: 1.36; activity call: inactive

How did the screen score NPM2 #2?
total luciferase, z-score: -0.271; activity call: inactive

With NPM2 #3, what was measured?
total luciferase, z-score: -0.819; activity call: inactive

What did the screen give for PLTP #1?
total luciferase, z-score: -2.21; activity call: inactive

With PLTP #2, what was measured?
total luciferase, z-score: 0.715; activity call: inactive

Which result is listed for PLTP #3?
total luciferase, z-score: -0.202; activity call: inactive
